From PMC8233901 (International Journal of Molecular Sciences, 2021)
The same purity stands for every peptide and may come from a single statement.

Assay: general procedure: Fmoc solid-phase peptide synthesis; Fmoc-Rink-MBHA resin (0.56 mmol/g); Oxyma/DIC
Settings: whole synthesis, 220 nm
In the case of Ac-KK(COC3H7)LfKKILKYL-NH2, the “final HPLC purity” value is reported as >99%. With Ac-KKK(COC11H23)fKKILKYL-NH2 the “final HPLC purity” value was >99%. In the case of Ac-KKLfK(COC3H7)KILKYL-NH2, the “final HPLC purity” value is reported as >99%. With Ac-KKLfKK(COC3H7)ILKYL-NH2 the “final HPLC purity” value was >99%. In the case of Ac-KKLfKKILKYK(COC3H7)-NH2, the “final HPLC purity” value is reported as >99%. With Ac-KKLfKKILKYK(COC5H11)-NH2 the “final HPLC purity” value was >99%. In the case of Ac-KKLfKKILKYK(COC11H23)-NH2, the “final HPLC purity” value is reported as >99%. In the case of Ac-KKLfKKK(COC5H11)LKYL-NH2, the “final HPLC purity” value is reported as >99%. With Ac-KKLfKKK(COC11H23)LKYL-NH2 the “final HPLC purity” value was >99%. With Ac-KKLk(COC5H11)KKILKYL-NH2 the “final HPLC purity” value was >99%. With Ac-KKLk(COC11H23)KKILKYL-NH2 the “final HPLC purity” value was >99%. For C3H7CO-KKLfKKILKYL-NH2, the “final HPLC purity” value was >99%. With C5H11CO-KKLfKKILKYL-NH2 the “final HPLC purity” value was >99%.
